{
  "sequences": {"note": "The chains behind the UniProt entries cited, without tags or fusion partners. Residues count along the entry.", "UniProt P02769, 25-607": "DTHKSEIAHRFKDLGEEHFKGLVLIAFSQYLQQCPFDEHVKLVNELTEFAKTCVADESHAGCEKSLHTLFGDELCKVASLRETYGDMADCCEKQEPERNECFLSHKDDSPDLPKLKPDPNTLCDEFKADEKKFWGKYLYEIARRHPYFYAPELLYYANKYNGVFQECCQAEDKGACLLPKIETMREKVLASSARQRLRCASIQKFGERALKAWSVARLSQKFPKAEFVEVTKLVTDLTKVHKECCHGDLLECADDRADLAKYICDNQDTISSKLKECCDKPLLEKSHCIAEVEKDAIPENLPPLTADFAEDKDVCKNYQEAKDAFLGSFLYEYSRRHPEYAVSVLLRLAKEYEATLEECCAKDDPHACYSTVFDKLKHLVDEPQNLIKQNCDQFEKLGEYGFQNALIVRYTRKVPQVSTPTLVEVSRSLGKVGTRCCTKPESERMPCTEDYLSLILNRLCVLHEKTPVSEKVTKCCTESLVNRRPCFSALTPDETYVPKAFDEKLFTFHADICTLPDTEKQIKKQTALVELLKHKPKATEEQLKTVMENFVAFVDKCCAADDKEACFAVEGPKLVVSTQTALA"},
  "source": "paper PMC9502102",
  "key": {"[1]": {"system": "lysozyme", "test": "fluorescence recovery (GO sensor)", "details": "0.001 nM protein; commercial protein; label: 3'-FAM; single-stranded DNA"}, "[2]": {"target": "BSA (UniProt P02769)", "test": "fluorescence recovery (GO sensor)", "details": "0.001 nM protein; commercial protein; label: 3'-FAM; single-stranded DNA"}},
  "note": "No signal at the amounts used counts as a negative. For some assays here: For at least one entry, the source does not settle the construct or the ends of the probe.",
  "data": [
    {"sequence": "AAAAGTCCGTGGTAGGGCAGGTTGGGGTGACT [Thrombin binding aptamer (TBA)]", "values": [
      {"measurement": "binding result", "setting": "[1]", "value": "no binding"},
      {"measurement": "binding result", "setting": "[2]", "value": "no binding"}
    ]}
  ]
}
